Test results taken from paper PMC7923639.
No constants are given. Whether binding was seen depends on the method and setting. Binding seen in cells or lysates may run through a third protein. Some results given as binding are weak or reduced against the parent protein; the word gives no strength.

Chains of the proteins cited; added tags and fusions are not shown.
UniProt Q9NRC8: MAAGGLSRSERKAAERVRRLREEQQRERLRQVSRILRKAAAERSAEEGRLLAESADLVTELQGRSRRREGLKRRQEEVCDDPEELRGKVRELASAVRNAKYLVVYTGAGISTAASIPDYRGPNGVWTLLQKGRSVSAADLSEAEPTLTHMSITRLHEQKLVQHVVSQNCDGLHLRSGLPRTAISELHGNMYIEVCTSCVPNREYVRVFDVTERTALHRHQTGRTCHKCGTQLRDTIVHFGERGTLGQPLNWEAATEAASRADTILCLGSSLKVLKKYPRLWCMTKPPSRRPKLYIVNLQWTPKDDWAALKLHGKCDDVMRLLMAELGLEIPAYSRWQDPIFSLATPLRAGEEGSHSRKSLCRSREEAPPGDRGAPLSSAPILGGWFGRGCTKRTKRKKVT
UniProt Q9Y4B6: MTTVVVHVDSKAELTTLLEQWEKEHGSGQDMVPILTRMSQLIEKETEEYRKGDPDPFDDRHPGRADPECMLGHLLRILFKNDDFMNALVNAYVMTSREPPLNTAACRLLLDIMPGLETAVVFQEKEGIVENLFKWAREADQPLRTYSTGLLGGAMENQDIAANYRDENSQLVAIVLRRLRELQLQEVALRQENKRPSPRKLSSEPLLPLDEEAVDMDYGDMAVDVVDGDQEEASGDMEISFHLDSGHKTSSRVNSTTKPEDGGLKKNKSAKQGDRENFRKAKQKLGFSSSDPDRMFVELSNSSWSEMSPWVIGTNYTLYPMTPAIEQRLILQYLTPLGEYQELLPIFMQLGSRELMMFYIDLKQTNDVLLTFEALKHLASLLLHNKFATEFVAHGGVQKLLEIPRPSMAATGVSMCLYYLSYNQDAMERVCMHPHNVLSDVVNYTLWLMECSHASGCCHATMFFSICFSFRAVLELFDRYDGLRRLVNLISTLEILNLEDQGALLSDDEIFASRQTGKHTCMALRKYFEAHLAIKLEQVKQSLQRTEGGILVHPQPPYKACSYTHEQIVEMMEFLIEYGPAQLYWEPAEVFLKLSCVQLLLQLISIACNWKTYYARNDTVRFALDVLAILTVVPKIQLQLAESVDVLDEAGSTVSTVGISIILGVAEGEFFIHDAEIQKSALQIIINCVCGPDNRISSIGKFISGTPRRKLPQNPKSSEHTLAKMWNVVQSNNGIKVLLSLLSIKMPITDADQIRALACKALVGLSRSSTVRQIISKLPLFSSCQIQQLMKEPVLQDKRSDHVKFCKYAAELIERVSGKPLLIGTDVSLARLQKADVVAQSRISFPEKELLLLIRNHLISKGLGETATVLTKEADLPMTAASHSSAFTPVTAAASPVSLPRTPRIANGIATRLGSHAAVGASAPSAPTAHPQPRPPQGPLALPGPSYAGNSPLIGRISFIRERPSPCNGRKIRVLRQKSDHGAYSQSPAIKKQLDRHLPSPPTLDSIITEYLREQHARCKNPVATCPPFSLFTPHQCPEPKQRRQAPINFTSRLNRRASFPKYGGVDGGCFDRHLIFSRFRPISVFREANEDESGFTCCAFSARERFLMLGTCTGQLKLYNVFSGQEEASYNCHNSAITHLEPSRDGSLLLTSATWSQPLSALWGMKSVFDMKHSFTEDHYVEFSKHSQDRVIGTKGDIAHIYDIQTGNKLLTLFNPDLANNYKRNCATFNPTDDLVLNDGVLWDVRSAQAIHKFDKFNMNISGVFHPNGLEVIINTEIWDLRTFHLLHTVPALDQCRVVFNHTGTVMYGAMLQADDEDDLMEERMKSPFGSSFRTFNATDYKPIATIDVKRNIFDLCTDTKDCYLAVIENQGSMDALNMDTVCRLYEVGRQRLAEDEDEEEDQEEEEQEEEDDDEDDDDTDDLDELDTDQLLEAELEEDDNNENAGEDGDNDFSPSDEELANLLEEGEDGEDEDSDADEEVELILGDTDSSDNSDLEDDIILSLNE
UniProt Q16531: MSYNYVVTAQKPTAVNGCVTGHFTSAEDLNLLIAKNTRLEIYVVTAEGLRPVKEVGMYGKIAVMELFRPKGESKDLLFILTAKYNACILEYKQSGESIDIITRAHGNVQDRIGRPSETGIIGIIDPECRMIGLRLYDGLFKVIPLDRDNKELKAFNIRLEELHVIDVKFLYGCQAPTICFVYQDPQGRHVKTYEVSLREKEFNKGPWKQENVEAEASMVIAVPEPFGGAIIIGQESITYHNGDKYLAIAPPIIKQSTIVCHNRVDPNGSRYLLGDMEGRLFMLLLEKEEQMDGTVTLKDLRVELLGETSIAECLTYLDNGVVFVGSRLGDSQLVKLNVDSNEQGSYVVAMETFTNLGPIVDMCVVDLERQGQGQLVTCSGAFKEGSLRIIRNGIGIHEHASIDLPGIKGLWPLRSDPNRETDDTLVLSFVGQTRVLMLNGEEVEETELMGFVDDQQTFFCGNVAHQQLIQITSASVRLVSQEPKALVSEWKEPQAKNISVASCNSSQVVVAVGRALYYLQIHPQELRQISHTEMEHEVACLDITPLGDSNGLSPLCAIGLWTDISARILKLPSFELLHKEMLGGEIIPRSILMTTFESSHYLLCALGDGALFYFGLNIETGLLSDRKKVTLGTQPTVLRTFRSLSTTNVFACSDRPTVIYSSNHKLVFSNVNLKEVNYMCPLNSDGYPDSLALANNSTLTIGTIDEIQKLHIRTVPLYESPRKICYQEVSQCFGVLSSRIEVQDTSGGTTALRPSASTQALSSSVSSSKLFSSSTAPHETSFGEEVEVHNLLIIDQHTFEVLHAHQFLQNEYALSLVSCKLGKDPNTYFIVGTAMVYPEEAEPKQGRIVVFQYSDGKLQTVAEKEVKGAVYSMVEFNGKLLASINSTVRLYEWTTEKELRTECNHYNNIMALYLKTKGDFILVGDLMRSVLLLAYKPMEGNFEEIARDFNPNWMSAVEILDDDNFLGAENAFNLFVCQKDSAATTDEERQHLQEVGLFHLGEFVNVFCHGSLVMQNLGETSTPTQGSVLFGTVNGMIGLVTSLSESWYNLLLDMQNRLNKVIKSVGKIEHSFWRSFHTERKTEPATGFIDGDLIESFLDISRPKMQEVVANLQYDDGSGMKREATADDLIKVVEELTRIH

Key:
FLAG and HA-tagged SIRT7 [1] = target: FLAG and HA-tagged SIRT7 (UniProt Q9NRC8); assay: co-IP; FLAG-SIRT7 as bait, co-expressed with DDB1, DCAF1 and Vpr in HEK293T; anti-FLAG magnetic beads, 4 °C, 5 h; eluted with FLAG peptide; immunoblot (Fig. 1c)
FLAG and HA-tagged SIRT7 [2] = target: FLAG and HA-tagged SIRT7 (UniProt Q9NRC8); assay: co-IP; FLAG-SIRT7 as bait, co-expressed with DDB1 or with DDB1 and DCAF1 in HEK293T; anti-FLAG magnetic beads, 4 °C, 5 h; eluted with FLAG peptide; immunoblot (Fig. 1b)
FLAG-tagged DCAF1 = FLAG-tagged DCAF1 (UniProt Q9Y4B6); assay: co-IP; FLAG-DCAF1 as bait; HEK293T co-transfected, 48 h; lysate (50 mM Tris, 150 mM NaCl, 0.5% NP-40, pH 7.5) with anti-FLAG magnetic beads, 4 °C, 5 h; eluted with FLAG peptide; immunoblot (Fig. 1a, Fig. 3b)

## HA-tagged DCAF1 (from UniProt Q9Y4B6 1-1507)
FLAG and HA-tagged SIRT7 [1]
  binding: binds
FLAG and HA-tagged SIRT7 [2]
  binding: binds

## HA-tagged SIRT7 (from UniProt Q9NRC8 1-400)
FLAG-tagged DCAF1
  binding: binds

## Myc and HA-tagged DDB1 (from UniProt Q16531 1-1140)
FLAG and HA-tagged SIRT7 [1]
  binding: binds
FLAG and HA-tagged SIRT7 [2]
  binding: binds
